Laboratory results published in article PMC8443252.

Biological target: fatty acid synthase (D. melanogaster (endogenous in adult flies))
Experiment: co-IP; FASN immunoprecipitated with guinea pig anti-FASN from abdomens of 5-day-old adult males; 10 mM Tris pH 7.4, 150 mM NaCl, 0.1% Triton X-100; normal guinea pig IgG as control; flies: w1118 control, dSTING deletion, rescue (dSTING deletion; GFP-dSTING), cg-GAL4/GFP-dSTING

B1: GFP-tagged Drosophila STING (protein, UniProt A0A0B4LFY9 1-343)
chain: MAIASNVVEAGNAVRAEKGRKYFYFRKMIGDYIDTSIRIVATVFLADLLLRLYRCVVEYGSNGRYYLPEDRLWIILRRSCTYNNRSIYLIVGFLLVAFFRISVTGNYRNVMPTTLFLFQMPLYWIWSFTDMDQSTLSYSHWIRDSHGLDYAAGMASNYFHGYLKLSLPERKDDGLKHRLAMYEDKNNVTFGIKRLVILIPDEMFVNGVLESHLLDKAEPLETQFINRAGVYRPFKHDVYRMNKKVNGRTYYFAVEGATPMISFFDATYSNLSGTWQMQELKREIWIKFYKHLKELITTWPETRDLVELIIYNSHDSKGNLVDVGELLVAHMQNKTKTIDEISN
binding: binds

No constants are given. Whether binding was seen depends on the method and setting. In cells and extracts the contact can be indirect. Binding calls can cover weak binding; strength is not graded here. Where a sequence is shown, tags or fusion partners need not be part of it.
